Measured values taken from the supplement of paper PMC12823440, “Inhibitors supercharge kinase turnover through native proteolytic circuits” (Nature, 2025).
The other results are listed elsewhere or left out. Hit calls seldom repeat between salt and free forms of one compound.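 Kinases were expressed as nanoluciferase fusions in K562 cells and luminescence was read every 4 h between 2 and 18 h as percent of control, DMSO set to 100% and a positive control to 0%. A time point counts as decreased when the signal drops significantly (2 sigma). The hit call is the authors' own, does not follow from the count of time points alone, and its rule is not shown.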

Sequences of proteins named here, by UniProt entry; tags and fusion partners are left off. A change or cut given only in a name is not applied to a line headed by its entry.
UniProt P07948: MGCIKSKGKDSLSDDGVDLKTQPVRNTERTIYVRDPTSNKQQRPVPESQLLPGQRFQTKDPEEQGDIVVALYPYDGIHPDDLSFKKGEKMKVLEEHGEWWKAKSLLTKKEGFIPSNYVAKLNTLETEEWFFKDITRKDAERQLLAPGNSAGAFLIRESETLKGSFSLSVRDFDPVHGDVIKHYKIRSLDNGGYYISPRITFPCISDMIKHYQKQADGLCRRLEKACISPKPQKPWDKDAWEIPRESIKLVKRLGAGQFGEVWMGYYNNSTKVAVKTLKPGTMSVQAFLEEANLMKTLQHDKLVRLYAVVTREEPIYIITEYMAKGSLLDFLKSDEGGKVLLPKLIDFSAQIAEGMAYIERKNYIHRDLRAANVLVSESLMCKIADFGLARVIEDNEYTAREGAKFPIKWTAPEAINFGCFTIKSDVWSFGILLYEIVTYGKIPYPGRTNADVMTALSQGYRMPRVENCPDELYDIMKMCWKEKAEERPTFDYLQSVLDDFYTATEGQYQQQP

Target: LYN (UniProt P07948)
Experiment: kinase-Nluc reporter destabilization hit call (1 = scored as downregulated) (binary); higher = compound decreases kinase abundance
Settings: K562; 2-18 h

kinase-Nluc reporter destabilization hit call, inactive:
O=C1O[C@H]([C@@H](O)CO)C(O)=C1OP(=O)(O)O [2-Phospho-L-ascorbic acid (trisodium)] (10 µM) 0, Cn1cnc([N+](=O)[O-])c1C[N+](C)(C)C/C=C/C(=O)Nc1cc2c(Nc3ccc(Cl)c(Br)c3)ncnc2cn1 [Tarloxotinib (bromide)] (10 µM) 0, CC1(C)Cc2c(sc(NC(=S)NC(=O)c3ccccc3)c2C(=O)O)CO1 (10 µM) 0, CCCCCCCCCCCCCCCCOP(=O)([O-])OCC[N+](C)(C)C [Miltefosine] (10 µM) 0, N#CC(c1ccnc(OCc2ccc(CN3CCOCC3)cc2)n1)c1nc2ccccc2s1 (stereo unspecified) [Bentamapimod] (2.5 µM) 0, Cc1cnc(-c2ccc(-c3ccc(NC(=O)Nc4cccc(C(F)(F)F)c4)cc3F)c3c2C(=O)NC3)[nH]1 (10 µM) 0, CC(C)=CC(=O)O[C@H]1Cc2cc3ccc(=O)oc3cc2OC1(C)C [Decursin] (10 µM) 0, O=C(N[C@@H](C1CC1)C(F)(F)F)c1cc(-c2cnn3cc(-c4ccc(F)cc4)cnc23)cs1 (10 µM) 0, CNc1cc(Nc2cccn(-c3ccccn3)c2=O)nn2c(C(=O)N[C@@H]3C[C@@H]3F)cnc12 (2.5 µM) 0, CS(=O)(=O)c1ccc(-c2cnc(N)c(-c3ccc(C(F)(F)F)nc3)c2)cc1 (10 µM) 0, CN(c1ccc(NC(=O)Nc2ccc(OC(F)(F)F)cc2)cc1)c1ccnc(Nc2cccc(S(N)(=O)=O)c2)n1 (2.5 µM) 0, Cc1ccc2c(Nc3cccc(Cl)c3F)nccc2c1NC(=O)c1csc2c(N)ncnc12 [Belvarafenib] (10 µM) 0, COc1nn(C)cc1Nc1nccc(-c2c[nH]c3c(NC(=O)[C@@H](C)N4CCN(C)CC4)cccc23)n1 (10 µM) 0

Target: MAP2K1 (UniProt Q02750)
Experiment: as above
Settings: K562; 2-18 h

kinase-Nluc reporter destabilization hit call, inactive:
O=C(O)c1cc(N(Cc2ccccc2O)Cc2ccccc2O)ccc1O [Lavendustin B] (10 µM) 0, Cc1cnc(NC2CCOCC2)nc1-n1cnc(C(=O)N[C@H](CN)c2cc(F)cc(Cl)c2)c1 (10 µM) 0, Cn1ncc2cc(-c3cnc(N)c(Cl)c3N3CCC4(CCNC4=O)CC3)ccc21 (10 µM) 0, CC(C)c1cccc(C(C)C)c1N1C(=O)c2ccc(N)cc2C1=O (2.5 µM) 0, CC[C@@](C)(Nc1ccnc(-c2c[nH]c3ncccc23)n1)C(=O)NCC(F)(F)F [Decernotinib] (10 µM) 0, NC1=NCCN1CC(=O)O [Cyclocreatine] (10 µM) 0, Nc1c(C(=O)NCc2ccc(C(=O)NCCCC3CCCCC3)cc2)cnn1-c1ccccc1 (2.5 µM) 0, C[C@H](Nc1ncnc2nc[nH]c12)c1cc2cccc(Cl)c2c(=O)n1-c1ccccc1 [Duvelisib] (10 µM) 0, Cc1cc(Nc2nc(CC3(C(=O)O)CCN(C(=O)c4cccc(Cl)c4Cl)CC3)ccc2F)n[nH]1 (10 µM) 0, C[C@@H]1O[C@@H](O[C@@H]2[C@@H](O)[C@H](OCCc3ccc(O)c(O)c3)O[C@H](CO)[C@H]2OC(=O)/C=C/c2ccc(O)c(O)c2)[C@H](O)[C@H](O)[C@H]1O [Verbascoside] (10 µM) 0, O=C1/C(=C\c2ccc(Cl)cc2)C=C(c2ccccc2)N1c1ccc(O)cc1 (2.5 µM) 0, Nc1nccc(Oc2ccc(NC(=O)c3c[nH]cc(-c4ccc(F)cc4)c3=O)cc2F)c1Cl (10 µM) 0, COc1ccc(-c2c(C)nn3c(NCCN4CCOCC4)cc(C)nc23)cc1OC (10 µM) 0, O=C1NC(=O)C(c2cnc3ccccn23)=C1c1cn2c3c(cc(F)cc13)CNCC2 [GSK-3 inhibitor 1] (2.5 µM) 0, CCCCCCCC/C=C\CCCCCCCCCCCC(=O)O [Erucic acid] (10 µM) 0, O=C(Nc1nc2ccccc2[nH]1)c1cccc([N+](=O)[O-])c1 [IRAK-4 protein kinase inhibitor 2] (10 µM) 0, Cc1cccc(-c2[nH]c(C(C)(C)C)nc2-c2ccc3nccnc3c2)n1 (10 µM) 0, C[C@@H]1CC(=O)c2c(ccc3c2C(=O)c2cccc(O)c2C3=O)C1 [Ochromycinone] (10 µM) 0, CN1C(=O)[C@@H](NC(=O)c2n[nH]c(Cc3ccccc3)n2)COc2ccccc21 (10 µM) 0, CCc1cccc(CC)c1NC(=O)N1Cc2[nH]nc(NC(=O)c3ccc(N4CCN(C)CC4)cc3)c2C1 (2.5 µM) 0, COc1ccc(N=Nc2c(N)n[nH]c2N)cc1 (10 µM) 0, Cc1ccc(NC(=O)c2ccnc(C(F)(F)F)c2)cc1-c1cc(OCCO)nc(N2CCOCC2)c1 (10 µM) 0, CC(C)(O)[C@H]1CC[C@H](Nc2ccc3ncc(-c4cccc(C(F)(F)F)c4)n3n2)CC1 (10 µM) 0, CCn1c(=O)c(-c2cc[nH]n2)cc2c(C)nc(N)nc21 [Voxtalisib] (10 µM) 0, C[C@H](NC(=O)[C@H]1NCC[C@@H]1O)c1ccc(-c2noc(CCC3CCCC3)n2)cc1 (10 µM) 0, O=C1O[C@H]([C@@H](O)CO)C(O)=C1OP(=O)(O)O [2-Phospho-L-ascorbic acid (trisodium)] (10 µM) 0, Cn1cnc([N+](=O)[O-])c1C[N+](C)(C)C/C=C/C(=O)Nc1cc2c(Nc3ccc(Cl)c(Br)c3)ncnc2cn1 [Tarloxotinib (bromide)] (10 µM) 0, CC1(C)Cc2c(sc(NC(=S)NC(=O)c3ccccc3)c2C(=O)O)CO1 (10 µM) 0, CCCCCCCCCCCCCCCCOP(=O)([O-])OCC[N+](C)(C)C [Miltefosine] (10 µM) 0, N#CC(c1ccnc(OCc2ccc(CN3CCOCC3)cc2)n1)c1nc2ccccc2s1 (stereo unspecified) [Bentamapimod] (2.5 µM) 0, Cc1cnc(-c2ccc(-c3ccc(NC(=O)Nc4cccc(C(F)(F)F)c4)cc3F)c3c2C(=O)NC3)[nH]1 (10 µM) 0, CC(C)=CC(=O)O[C@H]1Cc2cc3ccc(=O)oc3cc2OC1(C)C [Decursin] (10 µM) 0, O=C(N[C@@H](C1CC1)C(F)(F)F)c1cc(-c2cnn3cc(-c4ccc(F)cc4)cnc23)cs1 (10 µM) 0, CNc1cc(Nc2cccn(-c3ccccn3)c2=O)nn2c(C(=O)N[C@@H]3C[C@@H]3F)cnc12 (2.5 µM) 0, CS(=O)(=O)c1ccc(-c2cnc(N)c(-c3ccc(C(F)(F)F)nc3)c2)cc1 (10 µM) 0, CN(c1ccc(NC(=O)Nc2ccc(OC(F)(F)F)cc2)cc1)c1ccnc(Nc2cccc(S(N)(=O)=O)c2)n1 (2.5 µM) 0, Cc1ccc2c(Nc3cccc(Cl)c3F)nccc2c1NC(=O)c1csc2c(N)ncnc12 [Belvarafenib] (10 µM) 0, COc1nn(C)cc1Nc1nccc(-c2c[nH]c3c(NC(=O)[C@@H](C)N4CCN(C)CC4)cccc23)n1 (10 µM) 0
